Assay results: the supplement of paper PMC10849652
This is one part of the list.

By UniProt entry, the sequences of proteins in these tests, tags left out. Where a name states a change or a piece, a line headed by the entry shows the natural chain unless it says otherwise.
UniProt P51957: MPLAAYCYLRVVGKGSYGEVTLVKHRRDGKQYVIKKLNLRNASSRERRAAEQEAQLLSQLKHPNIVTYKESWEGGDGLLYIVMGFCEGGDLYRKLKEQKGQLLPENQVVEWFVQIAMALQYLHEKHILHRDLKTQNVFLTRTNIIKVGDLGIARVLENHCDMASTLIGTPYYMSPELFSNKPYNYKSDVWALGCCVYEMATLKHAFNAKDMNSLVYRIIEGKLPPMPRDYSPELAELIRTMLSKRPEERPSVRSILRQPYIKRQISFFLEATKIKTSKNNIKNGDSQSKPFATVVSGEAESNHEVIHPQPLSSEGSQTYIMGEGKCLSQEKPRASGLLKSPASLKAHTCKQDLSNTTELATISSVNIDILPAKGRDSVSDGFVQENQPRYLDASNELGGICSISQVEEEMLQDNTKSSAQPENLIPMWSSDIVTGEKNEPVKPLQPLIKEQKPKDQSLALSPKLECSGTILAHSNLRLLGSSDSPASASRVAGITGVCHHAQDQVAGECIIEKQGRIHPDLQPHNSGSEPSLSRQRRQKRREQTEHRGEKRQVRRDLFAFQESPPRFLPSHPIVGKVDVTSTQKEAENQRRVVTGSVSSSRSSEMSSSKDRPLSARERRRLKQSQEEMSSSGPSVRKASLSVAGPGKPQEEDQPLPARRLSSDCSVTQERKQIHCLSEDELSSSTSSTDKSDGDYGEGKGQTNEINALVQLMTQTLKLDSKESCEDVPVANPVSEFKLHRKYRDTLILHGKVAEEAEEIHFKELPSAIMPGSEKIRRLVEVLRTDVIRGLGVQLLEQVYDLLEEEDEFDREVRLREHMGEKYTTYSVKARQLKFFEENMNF
UniProt Q7Z628: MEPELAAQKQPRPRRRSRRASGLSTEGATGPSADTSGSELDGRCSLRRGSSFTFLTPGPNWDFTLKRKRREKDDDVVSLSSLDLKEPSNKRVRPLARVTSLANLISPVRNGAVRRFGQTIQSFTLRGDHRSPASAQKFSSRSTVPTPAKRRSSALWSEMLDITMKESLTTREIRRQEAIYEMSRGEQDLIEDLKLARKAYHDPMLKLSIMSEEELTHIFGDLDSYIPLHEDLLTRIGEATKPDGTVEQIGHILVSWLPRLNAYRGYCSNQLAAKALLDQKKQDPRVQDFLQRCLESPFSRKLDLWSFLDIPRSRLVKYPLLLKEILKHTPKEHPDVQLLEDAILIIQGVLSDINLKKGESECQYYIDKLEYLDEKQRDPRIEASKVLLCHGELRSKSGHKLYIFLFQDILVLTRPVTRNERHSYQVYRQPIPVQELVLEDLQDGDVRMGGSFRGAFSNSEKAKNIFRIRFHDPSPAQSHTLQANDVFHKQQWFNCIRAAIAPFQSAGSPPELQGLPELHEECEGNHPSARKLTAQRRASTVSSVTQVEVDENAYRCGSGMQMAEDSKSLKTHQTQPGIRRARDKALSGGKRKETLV
UniProt P19838: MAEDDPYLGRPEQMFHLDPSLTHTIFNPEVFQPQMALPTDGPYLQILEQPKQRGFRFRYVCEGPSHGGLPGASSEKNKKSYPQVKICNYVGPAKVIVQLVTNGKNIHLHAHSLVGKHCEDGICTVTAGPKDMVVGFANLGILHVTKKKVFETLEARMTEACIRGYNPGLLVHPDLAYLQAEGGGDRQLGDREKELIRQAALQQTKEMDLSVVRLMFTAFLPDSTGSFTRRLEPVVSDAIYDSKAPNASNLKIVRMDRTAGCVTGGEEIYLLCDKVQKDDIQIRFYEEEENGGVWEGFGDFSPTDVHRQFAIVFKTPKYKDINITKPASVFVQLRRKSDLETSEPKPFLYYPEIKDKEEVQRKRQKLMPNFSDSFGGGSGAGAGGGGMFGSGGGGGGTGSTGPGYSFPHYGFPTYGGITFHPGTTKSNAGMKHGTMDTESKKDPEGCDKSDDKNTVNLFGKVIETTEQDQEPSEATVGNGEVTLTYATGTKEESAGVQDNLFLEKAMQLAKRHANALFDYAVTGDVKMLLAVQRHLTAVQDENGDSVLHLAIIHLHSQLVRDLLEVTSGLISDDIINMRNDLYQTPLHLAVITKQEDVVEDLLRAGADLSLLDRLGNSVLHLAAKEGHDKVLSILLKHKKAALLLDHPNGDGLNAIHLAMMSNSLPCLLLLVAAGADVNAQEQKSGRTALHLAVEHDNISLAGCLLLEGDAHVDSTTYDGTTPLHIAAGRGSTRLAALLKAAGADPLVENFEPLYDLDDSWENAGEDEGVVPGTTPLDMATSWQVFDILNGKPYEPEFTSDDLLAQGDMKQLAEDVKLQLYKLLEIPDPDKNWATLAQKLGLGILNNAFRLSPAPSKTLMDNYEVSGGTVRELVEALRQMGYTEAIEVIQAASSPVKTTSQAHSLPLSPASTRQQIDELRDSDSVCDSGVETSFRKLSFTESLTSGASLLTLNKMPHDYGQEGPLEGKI
UniProt Q8N4C6: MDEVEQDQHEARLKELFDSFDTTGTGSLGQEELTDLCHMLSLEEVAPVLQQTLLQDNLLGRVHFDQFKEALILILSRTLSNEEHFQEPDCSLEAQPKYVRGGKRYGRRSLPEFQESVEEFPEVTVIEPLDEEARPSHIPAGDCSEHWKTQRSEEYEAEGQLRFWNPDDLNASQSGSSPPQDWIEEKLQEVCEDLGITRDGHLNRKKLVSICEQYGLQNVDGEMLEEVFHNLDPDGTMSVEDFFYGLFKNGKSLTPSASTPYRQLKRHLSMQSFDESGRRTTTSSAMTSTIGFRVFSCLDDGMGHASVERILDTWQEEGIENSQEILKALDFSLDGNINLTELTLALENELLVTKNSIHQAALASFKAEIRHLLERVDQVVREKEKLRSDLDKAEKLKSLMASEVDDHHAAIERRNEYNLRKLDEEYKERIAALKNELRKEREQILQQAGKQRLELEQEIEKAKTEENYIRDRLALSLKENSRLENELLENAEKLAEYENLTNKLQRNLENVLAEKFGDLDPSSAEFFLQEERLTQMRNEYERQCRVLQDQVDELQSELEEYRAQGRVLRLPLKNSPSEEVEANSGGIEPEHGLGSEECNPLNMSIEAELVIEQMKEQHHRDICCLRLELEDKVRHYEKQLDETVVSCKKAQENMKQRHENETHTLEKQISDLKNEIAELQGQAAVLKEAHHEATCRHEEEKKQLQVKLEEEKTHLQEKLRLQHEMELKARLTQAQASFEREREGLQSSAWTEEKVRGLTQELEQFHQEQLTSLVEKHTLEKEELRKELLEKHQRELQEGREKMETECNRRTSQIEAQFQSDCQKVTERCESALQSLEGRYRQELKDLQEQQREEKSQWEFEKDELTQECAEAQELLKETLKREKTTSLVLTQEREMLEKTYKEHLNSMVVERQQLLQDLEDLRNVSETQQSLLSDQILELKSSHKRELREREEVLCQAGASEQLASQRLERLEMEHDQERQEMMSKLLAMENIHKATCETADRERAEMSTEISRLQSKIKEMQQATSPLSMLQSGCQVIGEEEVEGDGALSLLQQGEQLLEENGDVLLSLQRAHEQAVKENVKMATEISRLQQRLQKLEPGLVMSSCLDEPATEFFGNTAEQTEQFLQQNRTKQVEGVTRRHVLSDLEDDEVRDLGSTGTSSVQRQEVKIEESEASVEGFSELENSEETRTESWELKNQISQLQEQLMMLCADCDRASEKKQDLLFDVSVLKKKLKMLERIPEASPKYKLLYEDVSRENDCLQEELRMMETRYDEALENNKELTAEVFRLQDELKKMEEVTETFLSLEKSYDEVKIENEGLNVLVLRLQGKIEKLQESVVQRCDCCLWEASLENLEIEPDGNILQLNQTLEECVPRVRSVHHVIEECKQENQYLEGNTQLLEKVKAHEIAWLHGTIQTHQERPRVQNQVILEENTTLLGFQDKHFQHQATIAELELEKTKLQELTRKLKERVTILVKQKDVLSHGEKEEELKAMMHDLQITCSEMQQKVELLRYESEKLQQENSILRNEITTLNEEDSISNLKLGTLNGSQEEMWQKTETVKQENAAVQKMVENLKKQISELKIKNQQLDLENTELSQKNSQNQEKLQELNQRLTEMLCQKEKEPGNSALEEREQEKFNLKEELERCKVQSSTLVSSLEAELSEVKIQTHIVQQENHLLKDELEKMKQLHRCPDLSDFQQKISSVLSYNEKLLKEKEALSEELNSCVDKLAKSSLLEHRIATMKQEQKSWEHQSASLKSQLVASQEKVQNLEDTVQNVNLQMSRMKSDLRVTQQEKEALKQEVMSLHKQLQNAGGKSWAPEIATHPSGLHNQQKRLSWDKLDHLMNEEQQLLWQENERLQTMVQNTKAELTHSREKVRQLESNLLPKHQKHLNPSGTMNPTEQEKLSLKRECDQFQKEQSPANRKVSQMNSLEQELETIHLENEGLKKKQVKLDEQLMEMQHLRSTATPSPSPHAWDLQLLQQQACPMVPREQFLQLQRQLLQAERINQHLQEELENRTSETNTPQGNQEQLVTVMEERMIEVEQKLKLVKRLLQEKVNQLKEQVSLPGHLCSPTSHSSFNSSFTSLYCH
UniProt Q16649: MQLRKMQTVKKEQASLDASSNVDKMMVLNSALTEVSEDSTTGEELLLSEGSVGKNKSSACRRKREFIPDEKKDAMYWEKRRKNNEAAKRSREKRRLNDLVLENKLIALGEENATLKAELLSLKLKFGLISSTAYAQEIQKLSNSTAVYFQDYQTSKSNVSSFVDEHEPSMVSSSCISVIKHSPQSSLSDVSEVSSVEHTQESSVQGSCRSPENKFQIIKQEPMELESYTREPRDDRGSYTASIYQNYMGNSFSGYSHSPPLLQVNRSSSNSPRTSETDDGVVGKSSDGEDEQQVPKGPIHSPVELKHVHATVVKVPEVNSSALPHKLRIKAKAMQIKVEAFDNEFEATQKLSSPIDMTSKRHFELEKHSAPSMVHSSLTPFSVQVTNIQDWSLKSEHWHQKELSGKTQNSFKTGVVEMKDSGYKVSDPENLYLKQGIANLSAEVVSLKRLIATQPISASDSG
UniProt Q330K2: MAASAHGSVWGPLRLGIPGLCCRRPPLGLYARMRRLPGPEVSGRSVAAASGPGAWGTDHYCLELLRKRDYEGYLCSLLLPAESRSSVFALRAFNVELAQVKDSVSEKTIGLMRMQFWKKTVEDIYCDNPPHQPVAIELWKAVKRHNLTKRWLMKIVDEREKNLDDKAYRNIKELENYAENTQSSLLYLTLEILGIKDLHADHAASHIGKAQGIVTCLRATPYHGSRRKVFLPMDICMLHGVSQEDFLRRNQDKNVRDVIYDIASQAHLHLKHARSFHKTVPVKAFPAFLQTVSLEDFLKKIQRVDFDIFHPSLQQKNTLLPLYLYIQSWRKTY
UniProt Q86UT6, whole entry, looked up: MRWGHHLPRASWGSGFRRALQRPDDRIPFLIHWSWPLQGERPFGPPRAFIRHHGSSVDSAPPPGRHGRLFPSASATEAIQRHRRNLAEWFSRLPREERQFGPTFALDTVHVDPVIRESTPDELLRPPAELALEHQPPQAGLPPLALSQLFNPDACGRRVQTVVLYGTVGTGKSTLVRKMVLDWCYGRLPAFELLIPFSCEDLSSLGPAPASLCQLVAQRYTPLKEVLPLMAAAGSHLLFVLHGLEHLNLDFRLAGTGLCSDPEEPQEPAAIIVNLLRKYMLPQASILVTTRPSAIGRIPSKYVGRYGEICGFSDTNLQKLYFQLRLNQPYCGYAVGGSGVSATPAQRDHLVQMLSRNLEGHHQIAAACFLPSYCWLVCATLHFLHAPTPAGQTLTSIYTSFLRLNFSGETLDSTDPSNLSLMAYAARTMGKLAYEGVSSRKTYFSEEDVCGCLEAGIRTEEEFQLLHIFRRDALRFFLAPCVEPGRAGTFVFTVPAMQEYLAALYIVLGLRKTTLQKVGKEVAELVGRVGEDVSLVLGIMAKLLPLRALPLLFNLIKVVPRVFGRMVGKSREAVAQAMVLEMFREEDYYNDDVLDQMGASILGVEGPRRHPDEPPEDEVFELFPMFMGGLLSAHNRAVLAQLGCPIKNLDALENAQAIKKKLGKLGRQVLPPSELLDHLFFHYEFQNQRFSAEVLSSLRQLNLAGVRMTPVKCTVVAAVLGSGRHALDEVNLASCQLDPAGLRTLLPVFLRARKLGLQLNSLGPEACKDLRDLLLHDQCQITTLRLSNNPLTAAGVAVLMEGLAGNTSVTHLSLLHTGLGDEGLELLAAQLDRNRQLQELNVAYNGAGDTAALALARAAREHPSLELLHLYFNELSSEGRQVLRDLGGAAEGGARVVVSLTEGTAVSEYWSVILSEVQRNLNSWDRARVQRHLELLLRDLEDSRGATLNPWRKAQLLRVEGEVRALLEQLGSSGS

What was measured:
Assay in all cases: log2 fold change, soluble protein after heating vs DMSO (PISA); higher = thermal stabilisation; K562 lysate, 10 uM; active = over 0.2 and 3.5 SD of the protein, either way, in both replicates (recomputed)
[1] = compound: C1=CC2=NC=CN=C2C=C1/C=C/3\C(=O)NC(=O)S3
Method in brief: (§1)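 Quantification was by TMTpro 16plex LC-MS/MS with equalised channel sums, applied to the supernatant after 21,000xg for 90 min. Samples were crude K562 extract at 1 mg/mL protein in PBS pH 7.4 with 1 mM MgCl2, treated with 10 μM compound for 30 min, heated for 3 min across 48°C-58°C, pooled and brought to 0.5% NP-40 at 4°C. Values are log-two fold changes in thermal stability relative to solvent controls, from duplicates.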

ibrutinib = compound: C=CC(=O)N1CCC[C@@H](n2nc(-c3ccc(Oc4ccccc4)cc3)c3c(N)ncnc32)C1 [ibrutinib]
Method in brief: as §1

[2] = compound: C/C(=N\NC(=O)C1=CC(=CC=C1)S(=O)(=O)N2CCOCC2)/C3=C(C=CC(=C3)Cl)O
Method in brief: as §1

[3] = compound: C1=CC2=C(C=CC(=C2)/C=C\3/C(=O)NC(=NCC4=CC=CS4)S3)N=C1
Method in brief: as §1

[4] = compound: C1=CC=C2C(=C1)C3=NNC4=CC=CC(=C43)C2=O
Method in brief: as §1

erlotinib = compound: C#Cc1cccc(Nc2ncnc3cc(OCCOC)c(OCCOC)cc23)c1 [erlotinib]
Method in brief: as §1

[5] = compound: C1=CC(=CC=C1C2=NC3=C(N2)C=C(C=C3)C(=O)N)OC4=CC=C(C=C4)Cl
Method in brief: as §1

[6] = compound: C1=CC=C(C=C1)C2=NC(=C(N2)C3=CC=NC=C3)C4=CC(=C(C=C4)Cl)O
Method in brief: as §1

IRAK-1-4 Inhibitor I = compound: C1COCCN1CCN2C3=CC=CC=C3N=C2NC(=O)C4=CC(=CC=C4)[N+](=O)[O-] [IRAK-1-4 Inhibitor I]
Method in brief: as §1

ralimetinib = compound: CC(C)(C)Cn1c(N)nc2ccc(-c3[nH]c(C(C)(C)C)nc3-c3ccc(F)cc3)nc21 [ralimetinib]
Method in brief: as §1

[7] = compound: CC(C)(O)CC(=O)NCCn1ccc2ncnc(Nc3ccc(Oc4cccc(C(F)(F)F)c4)c(Cl)c3)c21
Method in brief: as §1

[8] = compound: CC(C)C1=C2N=C(C=C(N2N=C1)NCC3=CC=CC=C3)NCCCCCCN
Method in brief: as §1

[9] = compound: CC1=C(C(CC(=O)N1)C2=CC=C(C=C2)C(F)(F)F)C(=O)NC3=C(C=C4C(=C3)C=NN4)F
Method in brief: as §1

[10] = compound: CC1=C(C=C(C=C1)NC(=O)C2=CC(=CC=C2)C(C)(C)C#N)NC3=CC4=C(C=C3)N=CN(C4=O)C
Method in brief: as §1

[11] = compound: CC1=C(C=C(C=C1)NC(=O)C2=CC(=CC=C2)N(C)C)NC(=O)C3=CC=C(C=C3)O
Method in brief: as §1

[12] = compound: C1CCN(C1)C(=O)NC2=CC=CC(=C2)NC3=NC=C(C(=N3)NCCC4=CN=CN4)Br
Method in brief: as §1

[13] = compound: C1CN(CCC1(CC2=CC=C(C=C2)Cl)N)C3=NC=NC4=C3C=CN4
Method in brief: as §1

[14] = compound: CC(=O)c1cnc2ccc(-c3cc(Cl)c(O)c(Cl)c3)nc2c1N[C@H]1CC[C@H](CN(C)C)CC1
Method in brief: as §1

[15] = compound: CC1=C(C2=C(C=C1)C(=O)C3=CC=CC=C3N2CCCN)C
Method in brief: as §1

[16] = compound: CC1=CC=C(C=C1)SC2=C3C=C(SC3=CN=C2)C(=O)N
Method in brief: as §1

Measured: log2 fold change

NEO1 (UniProt Q92859)
inactive: [1] -0.1 | ibrutinib -0.291

NEK4 (UniProt P51957)
inactive: [2] -0.128 | [3] -0.005 | [4] 0.073

NET1 (UniProt Q7Z628)
inactive: erlotinib -0.074 | [2] 0.148 | [5] -0.01 | [3] -0.226 | [6] 0.032 | [4] -0.022 | IRAK-1-4 Inhibitor I 0.01 | ralimetinib -0.237 | [7] 0.02 | [8] 0.038 | [9] -0.01 | [10] -0.057 | [11] 0.024

NFKB1 isoform 2 (UniProt P19838)
inactive: [2] -0.044 | [5] -0.035 | [3] -0.006 | [1] -0.002 | [6] 0.008 | [4] -0.013 | [12] -0.015 | [13] 0.013 | IRAK-1-4 Inhibitor I 0.019 | ibrutinib 0.007 | [14] 0.017 | ralimetinib 0.013 | [7] -0.016 | [8] 0.004 | [9] 0.054 | [15] -0.014 | [10] -0.027 | [11] 0.056 | [16] -0.007

NIN isoform 7 (UniProt Q8N4C6)
inactive: erlotinib -0.056 | [5] -0.039 | [6] 0.035 | IRAK-1-4 Inhibitor I -0.022 | [14] 0.09 | ralimetinib 0.071 | [7] -0.043 | [8] -0.065 | [10] -0.104 | [11] 0.011 | [16] -0.086

NDRG2 isoform 6 (UniProt Q9UN36)
inactive: erlotinib -0.025 | [2] 0.038 | [5] 0.035 | [3] 0.273 | [6] -0.17 | [4] -0.209 | [12] -0.05 | [13] -0.075 | IRAK-1-4 Inhibitor I 0.004 | [14] -0.227 | ralimetinib 0.127 | [7] 0.046 | [8] -0.043 | [15] 0.023 | [11] -0.02 | [16] -0.362

NDRG2 (UniProt G3V2A6)
inactive: [1] -0.174 | ibrutinib 0.232 | [14] -0.027 | [9] 0.161 | [16] -0.017

NFIL3 (UniProt Q16649)
inactive: [6] 0.055 | [12] 0.084 | [13] -0.332 | IRAK-1-4 Inhibitor I 0.02 | [14] 0.493 | ralimetinib 0.004 | [7] 0.004 | [9] -0.084 | [11] 0 | [16] -0.155

NFRKB isoform 2 (UniProt Q6P4R8)
inactive: erlotinib -0.099 | [5] 0.091 | [12] -0.041 | [13] 0.132 | [14] -0.031 | [8] -0.017 | [9] 0.035 | [10] 0.124 | [16] -0.048

NDUFAF6 (UniProt Q330K2)
inactive: erlotinib 0.087 | [5] -0.186 | [1] 0.053 | [6] -0.081 | [12] 0.101 | [13] 0.479 | IRAK-1-4 Inhibitor I 0.176 | ibrutinib 0.068 | [14] 0.01 | ralimetinib 0.008 | [7] -0.1 | [8] 0.092 | [9] 0.007 | [15] 0.072 | [10] -0.032 | [11] -0.1 | [16] 0.012

NLRX1 (UniProt Q86UT6)
inactive: erlotinib 0.013 | [2] 0.015 | [5] 0.149 | [3] -0.097 | [4] -0.035 | [12] 0.068 | [13] -0.098 | [8] -0.016
